For two substances, isolated yield results are on record in US4772547 (dated 1988).

The data set is described as follows: general procedure: Boc solid-phase peptide synthesis; benzhydrylamine (BHA) resin; symmetric anhydride procedure. The conditions noted are these: whole synthesis, scale of the general procedure 1.0 mmol, 0.7 mmol.

Substance HTLV-III env (487-511)-Cys-NH2 had an isolated yield of 12%.
Substance HTLV-III env Cys-(500-511)-NH2 came in with an isolated yield of 13%.
